According to PMC4147587, “Synthesis and Analgesic Effects of μ-TRTX-Hhn1b on Models of Inflammatory and Neuropathic Pain” (Toxins, 2014):

Test system: acetic acid-induced abdominal constriction responses in mice
Design: species or system mouse (ICR)
Settings: mouse, in vivo, ip
Description: The abdominal constriction responses induced by intraperitoneal (i.p.) injection of 0.2 mL acetic acid (0.8%), including contraction of the abdominal muscle and stretching of the hind limbs, were performed according to procedures described by Collier et al.. Mice (male, weighing 20–25 g) were pre-treated with the test samples dissolved in saline by intraperitoneal (i.p.) injection for 15 min prior to acetic acid injection. Control animals received the same volume of vehicle (saline: 0.9% sodium chloride solution). After the challenge, mice were individually placed into open polyvinyl cages (30 cm × 40 cm × 30 cm), and the abdominal constriction responses were counted cumulatively during 30 min, which was represented as the sum of constriction (S). The inhibition of pain responses was calculated by the equation as follows: inhibition of pain responses % = (Ssaline − Sdrug)/Ssaline per animal. One hundred percent corresponds to complete reversal of pain, equivalent to the non-injury value, and 0% corresponds to the value from the saline group.

## CN1CC[C@]23c4c5ccc(O)c4O[C@H]2[C@@H](O)C=C[C@H]3[C@H]1C5 [morphine, reference compound]
  inhibition of pain responses (abdominal constriction): 58.3%
